PubChem BioAssay AID504804 – Drosophila RNAi Screening Center | 2011
Test: 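Fly genes whose loss lessens doxorubicin-driven cell death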 (primary screen). Cell system: Drosophila Kc cells. Knock-down reagent: long dsRNA against Drosophila genes, 0.5 µg dsRNA per well. Time to read-out: 96 h (48 h knock-down, then 48 h drug). Challenge: doxorubicin 5 µg/ml for 48 h, added 48 h after dsRNA. Measurement: 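Luminescent ATP counts per replicate, not normalised, reflecting viable cells after 48 h dsRNA knock-down followed by 48 h of 5 µg/ml doxorubicin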. Scale: raw ATP luminescence: higher = more viable cells, protection from doxorubicin. Hit rule: 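z-score of 2 or more over plate mean in both duplicates, retained only when retests and separate dsRNAs confirm the protection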.
The deposit covers about 19,000 reagents; shown is an unselected part of those with a known target gene and a result. Of all reagents, 47 (0.25%) were called active. 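Signals are raw, not normalised; exact z-scores behind calls not deposited; actives needed confirmation, so some wells reaching 2 SD are inactive.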 The numbers tell different reagents against one gene apart. Names joined by + are all predicted targets of the reagent.

target gene	reagent	SD above plate mean	raw ATP luminescence, replicate 1	raw ATP luminescence, replicate 2	activity call
Ntmt (N-terminal methyltransferase)	1		34437	57470	inactive
ash2 (absent, small, or homeotic discs 2)	1		60813	50057	inactive
mys (myospheroid)	1		25070	36820	inactive
CG40005 (retired record) + cta	1		89187	73577	inactive
Rab1	1		33440	29470	inactive
Dph4 (Diphthamide biosynthesis 4)	1		71553	68563	inactive
CG7781	1		36810	72947	inactive
Isha (Insulator su(Hw) mRNA adaptor)	1		69193	51767	inactive
PCNA2 (Proliferating cell nuclear antigen 2)	1		55467	54543	inactive
cwo (clockwork orange)	1		59970	53840	inactive
CG42671	1		86923	78453	inactive
CG42671	2		72317	71287	inactive
CG10737	1		76383	66867	inactive
IFT46 (Intraflagellar transport 46)	1		45473	43203	inactive
CG31345	1		40957	51787	inactive
CG31345	2		39400	48223	inactive
zetaCOP (Coat Protein (coatomer) zeta)	1	at least 2 SD above plate mean	99567	90950	active
CG12699	1		66917	75343	inactive
lace	1		1.02e5	77643	inactive
SdhAL (Succinate dehydrogenase, subunit A (flavoprotein)-like)	1		35200	32200	inactive
Aduk (Another Drosophila Unc-51-like kinase)	1		45337	53033	inactive
Mesh1 (Metazoan SpoT homolog-1)	1		28930	39960	inactive

Just “raw ATP luminescence, replicate 1”, for 4 of the entries above:
CG7781	36810
Isha (Insulator su(Hw) mRNA adaptor)	69193
PCNA2 (Proliferating cell nuclear antigen 2)	55467
cwo (clockwork orange)	59970

More entries:
target gene	reagent	SD above plate mean	raw ATP luminescence, replicate 1	raw ATP luminescence, replicate 2	activity call
bmm (brummer)	1		23200	25797	inactive
dbf (doublefault)	1		41993	73467	inactive
Mdh2 (retired record)	1		65250	82100	inactive
Urod (Uroporphyrinogen decarboxylase)	1		43443	63343	inactive
CG34028	1		2.02e5	1.49e5	inactive
CG13068	1		51113	31677	inactive
CG3868	1		24857	26310	inactive
CG33257	1		58937	52757	inactive
SmydA-8 (SET and MYND domain containing, arthropod-specific, member 8)	1		27140	36160	inactive
X11L	1		1.99e5	2.11e5	inactive
X11L	2		2.09e5	2.00e5	inactive
GatA (Glutamyl-tRNA amidotransferase, subunit A)	1		37967	52413	inactive
